Results reported in the supplement of paper PMC10849652.
Some of the results follow.

Amino acid sequences for entries named in this document (tags omitted). A change or cut given only in a name is not applied to a line headed by its entry.
UniProt Q9Y5J9: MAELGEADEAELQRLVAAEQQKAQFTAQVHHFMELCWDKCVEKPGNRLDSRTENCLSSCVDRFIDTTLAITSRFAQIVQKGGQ
UniProt P62072: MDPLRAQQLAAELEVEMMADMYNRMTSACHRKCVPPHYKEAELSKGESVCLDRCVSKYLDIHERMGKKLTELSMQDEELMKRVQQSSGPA
UniProt Q8TBQ9: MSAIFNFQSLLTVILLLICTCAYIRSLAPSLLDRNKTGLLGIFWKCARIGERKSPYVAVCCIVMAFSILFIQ
UniProt Q7Z7N9: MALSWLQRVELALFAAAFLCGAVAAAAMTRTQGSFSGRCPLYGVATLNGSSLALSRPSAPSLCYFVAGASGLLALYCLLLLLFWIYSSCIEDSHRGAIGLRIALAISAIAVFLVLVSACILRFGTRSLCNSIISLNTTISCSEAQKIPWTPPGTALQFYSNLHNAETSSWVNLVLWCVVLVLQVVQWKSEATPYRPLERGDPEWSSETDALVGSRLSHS
UniProt Q9NS93: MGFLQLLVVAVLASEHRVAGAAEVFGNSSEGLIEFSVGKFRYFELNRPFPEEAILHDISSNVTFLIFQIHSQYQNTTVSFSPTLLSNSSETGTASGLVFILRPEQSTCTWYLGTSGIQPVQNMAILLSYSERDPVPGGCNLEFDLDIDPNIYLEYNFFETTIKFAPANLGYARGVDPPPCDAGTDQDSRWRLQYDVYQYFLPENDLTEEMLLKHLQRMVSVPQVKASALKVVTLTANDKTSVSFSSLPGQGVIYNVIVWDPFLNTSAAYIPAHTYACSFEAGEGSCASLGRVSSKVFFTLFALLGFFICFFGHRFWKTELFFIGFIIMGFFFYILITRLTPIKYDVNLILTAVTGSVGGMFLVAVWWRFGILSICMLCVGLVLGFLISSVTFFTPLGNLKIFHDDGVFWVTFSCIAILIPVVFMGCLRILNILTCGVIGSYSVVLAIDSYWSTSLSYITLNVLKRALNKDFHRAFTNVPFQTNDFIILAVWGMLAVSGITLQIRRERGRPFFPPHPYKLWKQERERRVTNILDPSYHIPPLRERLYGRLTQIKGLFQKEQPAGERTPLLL
UniProt Q9NX61: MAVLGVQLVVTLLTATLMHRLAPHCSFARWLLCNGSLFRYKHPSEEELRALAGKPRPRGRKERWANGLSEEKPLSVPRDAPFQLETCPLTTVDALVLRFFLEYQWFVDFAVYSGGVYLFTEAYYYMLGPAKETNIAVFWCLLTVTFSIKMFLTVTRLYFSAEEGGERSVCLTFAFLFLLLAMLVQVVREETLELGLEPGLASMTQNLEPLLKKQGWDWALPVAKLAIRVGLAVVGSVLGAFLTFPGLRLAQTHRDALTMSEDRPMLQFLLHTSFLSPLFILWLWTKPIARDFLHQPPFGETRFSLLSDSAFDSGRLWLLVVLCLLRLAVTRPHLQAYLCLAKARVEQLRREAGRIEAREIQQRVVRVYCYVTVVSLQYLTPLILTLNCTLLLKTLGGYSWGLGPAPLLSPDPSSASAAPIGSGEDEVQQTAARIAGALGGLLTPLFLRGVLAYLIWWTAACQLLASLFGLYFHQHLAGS
UniProt Q53S58: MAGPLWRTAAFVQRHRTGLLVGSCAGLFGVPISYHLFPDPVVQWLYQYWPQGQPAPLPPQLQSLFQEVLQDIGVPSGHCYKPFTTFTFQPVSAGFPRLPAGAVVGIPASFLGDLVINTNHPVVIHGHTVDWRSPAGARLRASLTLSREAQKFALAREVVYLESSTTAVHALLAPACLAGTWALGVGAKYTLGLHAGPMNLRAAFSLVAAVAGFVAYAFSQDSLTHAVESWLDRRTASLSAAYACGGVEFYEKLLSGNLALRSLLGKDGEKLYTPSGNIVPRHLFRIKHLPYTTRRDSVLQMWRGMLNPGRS
UniProt Q04727: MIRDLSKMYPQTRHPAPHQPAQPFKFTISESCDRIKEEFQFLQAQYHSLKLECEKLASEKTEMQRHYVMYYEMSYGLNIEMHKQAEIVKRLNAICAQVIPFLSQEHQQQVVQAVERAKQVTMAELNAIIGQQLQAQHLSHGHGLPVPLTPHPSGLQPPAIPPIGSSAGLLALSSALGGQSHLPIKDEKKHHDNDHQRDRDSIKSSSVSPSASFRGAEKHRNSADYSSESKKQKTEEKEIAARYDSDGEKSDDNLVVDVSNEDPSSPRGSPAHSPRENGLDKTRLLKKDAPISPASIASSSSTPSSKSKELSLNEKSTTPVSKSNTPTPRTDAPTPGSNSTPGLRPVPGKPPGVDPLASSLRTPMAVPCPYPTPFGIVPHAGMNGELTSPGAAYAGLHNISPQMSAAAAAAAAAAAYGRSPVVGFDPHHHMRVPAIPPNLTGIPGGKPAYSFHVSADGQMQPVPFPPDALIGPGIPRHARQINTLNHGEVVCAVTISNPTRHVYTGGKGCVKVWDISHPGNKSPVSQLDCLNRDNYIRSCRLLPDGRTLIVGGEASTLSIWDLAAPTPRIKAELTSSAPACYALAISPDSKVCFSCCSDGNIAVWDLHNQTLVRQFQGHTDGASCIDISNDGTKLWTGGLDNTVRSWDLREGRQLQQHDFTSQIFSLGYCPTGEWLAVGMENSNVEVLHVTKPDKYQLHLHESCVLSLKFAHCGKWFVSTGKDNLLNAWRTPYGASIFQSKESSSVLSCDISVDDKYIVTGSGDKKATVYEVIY
UniProt Q7Z7H5: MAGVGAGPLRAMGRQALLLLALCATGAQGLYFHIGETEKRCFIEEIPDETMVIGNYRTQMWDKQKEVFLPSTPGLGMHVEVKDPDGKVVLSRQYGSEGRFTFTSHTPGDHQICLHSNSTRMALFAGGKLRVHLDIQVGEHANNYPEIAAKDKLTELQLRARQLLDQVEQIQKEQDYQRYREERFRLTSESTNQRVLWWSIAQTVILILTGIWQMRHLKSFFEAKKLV
UniProt O43615: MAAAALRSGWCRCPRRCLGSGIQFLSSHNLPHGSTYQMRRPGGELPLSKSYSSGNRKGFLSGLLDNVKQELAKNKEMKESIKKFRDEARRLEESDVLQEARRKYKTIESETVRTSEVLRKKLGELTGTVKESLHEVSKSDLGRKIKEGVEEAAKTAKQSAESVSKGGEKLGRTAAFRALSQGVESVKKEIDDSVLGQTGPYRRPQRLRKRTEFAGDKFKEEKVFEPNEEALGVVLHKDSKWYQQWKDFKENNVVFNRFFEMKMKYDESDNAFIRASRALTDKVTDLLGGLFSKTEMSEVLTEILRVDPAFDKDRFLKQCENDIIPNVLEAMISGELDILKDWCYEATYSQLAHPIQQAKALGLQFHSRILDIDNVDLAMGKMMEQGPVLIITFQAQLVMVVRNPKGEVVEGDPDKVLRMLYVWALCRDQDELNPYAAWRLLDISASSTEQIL
UniProt Q9Y490: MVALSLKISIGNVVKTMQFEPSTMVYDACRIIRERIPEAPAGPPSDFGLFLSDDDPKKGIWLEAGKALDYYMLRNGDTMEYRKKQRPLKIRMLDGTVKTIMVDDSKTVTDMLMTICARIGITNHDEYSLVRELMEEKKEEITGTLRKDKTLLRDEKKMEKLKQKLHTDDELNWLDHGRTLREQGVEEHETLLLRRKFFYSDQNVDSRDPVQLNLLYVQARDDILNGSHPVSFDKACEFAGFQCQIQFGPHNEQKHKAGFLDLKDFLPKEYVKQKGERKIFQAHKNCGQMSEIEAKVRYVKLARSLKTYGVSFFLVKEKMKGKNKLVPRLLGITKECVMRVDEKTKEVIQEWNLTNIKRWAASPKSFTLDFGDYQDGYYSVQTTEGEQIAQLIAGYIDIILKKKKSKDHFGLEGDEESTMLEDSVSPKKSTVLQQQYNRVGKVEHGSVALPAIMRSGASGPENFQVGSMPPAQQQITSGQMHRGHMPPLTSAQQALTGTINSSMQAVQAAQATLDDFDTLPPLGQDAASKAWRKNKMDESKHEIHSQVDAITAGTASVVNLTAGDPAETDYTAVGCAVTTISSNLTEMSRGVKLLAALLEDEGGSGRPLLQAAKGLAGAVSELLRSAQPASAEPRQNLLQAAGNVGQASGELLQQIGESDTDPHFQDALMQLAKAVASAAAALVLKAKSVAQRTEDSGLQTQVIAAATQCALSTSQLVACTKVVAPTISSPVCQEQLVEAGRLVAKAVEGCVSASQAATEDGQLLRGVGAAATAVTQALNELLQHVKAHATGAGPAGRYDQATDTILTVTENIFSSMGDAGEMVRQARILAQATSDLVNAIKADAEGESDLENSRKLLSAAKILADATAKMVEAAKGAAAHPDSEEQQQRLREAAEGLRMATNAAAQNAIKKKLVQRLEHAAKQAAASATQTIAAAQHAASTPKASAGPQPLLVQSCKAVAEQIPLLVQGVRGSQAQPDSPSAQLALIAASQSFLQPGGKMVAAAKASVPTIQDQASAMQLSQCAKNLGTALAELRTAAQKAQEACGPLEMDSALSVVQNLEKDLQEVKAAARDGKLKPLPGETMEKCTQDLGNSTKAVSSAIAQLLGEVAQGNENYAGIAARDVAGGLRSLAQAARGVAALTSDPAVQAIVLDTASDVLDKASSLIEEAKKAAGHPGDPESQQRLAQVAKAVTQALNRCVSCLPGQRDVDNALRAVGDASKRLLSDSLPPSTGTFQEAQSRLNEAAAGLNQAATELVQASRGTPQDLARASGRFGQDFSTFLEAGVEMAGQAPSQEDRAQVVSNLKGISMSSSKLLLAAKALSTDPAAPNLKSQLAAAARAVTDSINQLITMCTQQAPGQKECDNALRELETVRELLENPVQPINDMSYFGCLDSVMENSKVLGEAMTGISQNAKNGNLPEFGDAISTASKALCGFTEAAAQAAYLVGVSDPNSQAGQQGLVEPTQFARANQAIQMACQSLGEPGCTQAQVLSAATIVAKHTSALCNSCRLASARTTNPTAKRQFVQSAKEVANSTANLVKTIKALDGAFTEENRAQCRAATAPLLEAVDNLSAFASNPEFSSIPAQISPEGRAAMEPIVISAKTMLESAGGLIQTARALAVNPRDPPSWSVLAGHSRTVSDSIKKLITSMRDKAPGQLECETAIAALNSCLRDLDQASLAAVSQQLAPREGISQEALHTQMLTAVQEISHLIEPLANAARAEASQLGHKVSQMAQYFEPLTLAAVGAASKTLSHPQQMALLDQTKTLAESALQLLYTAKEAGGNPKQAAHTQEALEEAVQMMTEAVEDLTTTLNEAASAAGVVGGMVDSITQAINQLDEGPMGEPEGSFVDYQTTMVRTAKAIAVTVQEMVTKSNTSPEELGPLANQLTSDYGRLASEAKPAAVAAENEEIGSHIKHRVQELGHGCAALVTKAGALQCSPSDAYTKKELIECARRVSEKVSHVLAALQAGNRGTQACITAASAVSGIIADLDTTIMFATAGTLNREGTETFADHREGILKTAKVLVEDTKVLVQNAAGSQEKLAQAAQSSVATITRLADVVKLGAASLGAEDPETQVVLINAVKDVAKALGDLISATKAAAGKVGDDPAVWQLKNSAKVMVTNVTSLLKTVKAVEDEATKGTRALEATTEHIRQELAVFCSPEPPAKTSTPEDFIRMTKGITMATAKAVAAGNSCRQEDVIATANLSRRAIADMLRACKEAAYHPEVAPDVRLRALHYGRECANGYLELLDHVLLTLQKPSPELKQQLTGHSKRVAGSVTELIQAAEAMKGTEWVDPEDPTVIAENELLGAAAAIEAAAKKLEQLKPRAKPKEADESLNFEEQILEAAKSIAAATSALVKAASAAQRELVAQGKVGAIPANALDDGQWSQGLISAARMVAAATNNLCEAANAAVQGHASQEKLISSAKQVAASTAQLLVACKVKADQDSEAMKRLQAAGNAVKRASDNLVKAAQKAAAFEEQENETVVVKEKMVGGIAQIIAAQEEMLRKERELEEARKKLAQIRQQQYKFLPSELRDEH
UniProt Q8NE00: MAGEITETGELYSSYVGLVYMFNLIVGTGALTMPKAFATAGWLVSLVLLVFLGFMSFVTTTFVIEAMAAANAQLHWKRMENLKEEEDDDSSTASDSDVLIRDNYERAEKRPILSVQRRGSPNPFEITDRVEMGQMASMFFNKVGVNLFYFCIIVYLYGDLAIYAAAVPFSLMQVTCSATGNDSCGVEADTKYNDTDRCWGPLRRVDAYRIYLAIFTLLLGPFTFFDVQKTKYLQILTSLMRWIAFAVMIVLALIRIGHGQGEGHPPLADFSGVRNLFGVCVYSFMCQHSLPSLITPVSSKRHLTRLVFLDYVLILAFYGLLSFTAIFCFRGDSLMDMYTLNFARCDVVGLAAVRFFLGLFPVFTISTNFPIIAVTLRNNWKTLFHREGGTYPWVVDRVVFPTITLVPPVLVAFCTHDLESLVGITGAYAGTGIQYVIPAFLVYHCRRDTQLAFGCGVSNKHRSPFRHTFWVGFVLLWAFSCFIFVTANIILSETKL
UniProt Q9BSF4: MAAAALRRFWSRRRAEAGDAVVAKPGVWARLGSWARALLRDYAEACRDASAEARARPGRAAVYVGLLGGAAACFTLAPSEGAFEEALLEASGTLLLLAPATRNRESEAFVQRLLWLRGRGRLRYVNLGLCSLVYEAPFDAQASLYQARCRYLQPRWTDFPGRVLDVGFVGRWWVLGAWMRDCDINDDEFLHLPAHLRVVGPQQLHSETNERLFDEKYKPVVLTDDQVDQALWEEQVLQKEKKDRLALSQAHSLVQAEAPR

What was measured:
Assay in all cases: log2 fold change, soluble protein after heating vs DMSO (PISA); higher = thermal stabilisation; K562 lysate, 10 uM; active = over 0.2 and 3.5 SD of the protein, either way, in both replicates (recomputed)
[1] = compound: C1=CC=C(C=C1)[C@H](COC2=CC3=C(C=C2)NC(=O)N3)NC(=O)C4=CC=CN(C4=O)CC5=CC(=C(C=C5)F)F
Outline: (§1)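 The values are log-two fold changes in thermal stability compared with solvent controls and come from duplicates. They were obtained by TMTpro 16plex LC-MS/MS, with channel sums equalised, on the supernatant after 21,000xg for 90 min. That supernatant came from crude K562 extract at 1 mg/mL protein treated with 10 μM compound for 30 min, heated for 3 min across 48°C-58°C, pooled and brought to 0.5% NP-40 at 4°C.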

[2] = compound: CC1=C(SC2=C1C(=N[C@H](C3=NN=C(N32)C)CC(=O)N)C4=CC=C(C=C4)Cl)C
Outline: as §1

[3] = compound: CC1=C2C(=CC=C1)N=C(N(C2=O)C3=CC=CC=C3C)CN4C=NC5=C(N=CN=C54)N
Outline: as §1

[4] = compound: Cc1sc2c(c1C)C(c1ccc(Cl)cc1)=N[C@@H](CC(=O)OC(C)(C)C)c1nnc(C)n1-2
Outline: as §1

[5] = compound: c1ccc([C@@H]2C[C@H]2NC2CCNCC2)cc1
Outline: as §1

Measured: log2 fold change

TMEM123 (UniProt Q8N131)
inactive: [1] 0.125 | [2] -0.033 | [3] -0.021 | [4] -0.01 | [5] 0.079

TIAL1 isoform 2 (UniProt Q01085)
inactive: [1] 0.068 | [2] 0.017 | [3] -0.02 | [4] 0.031 | [5] -0.021

TIMM8B (UniProt Q9Y5J9)
inactive: [1] 0.015 | [2] 0.064 | [3] -0.025 | [4] 0.019 | [5] 0.162

THNSL1 (UniProt Q8IYQ7)
inactive: [1] 0.045 | [2] 0.045 | [3] 0.047 | [4] -0.005 | [5] 0.002

TIPRL (UniProt O75663)
inactive: [1] -0.026 | [2] 0.016 | [3] -0.02 | [4] 0.013 | [5] 0.003

TLE5 isoform 2 (UniProt Q08117)
inactive: [1] -0.05 | [2] 0.073 | [3] 0.014 | [4] -0.019 | [5] 0.042

THOC6 (UniProt Q86W42)
inactive: [1] 0.037 | [2] -0.015 | [3] 0.033 | [4] 0.015 | [5] -0.003

TIMM10 (UniProt P62072)
inactive: [1] 0.07 | [2] -0.025 | [3] -0.048 | [4] 0.057 | [5] 0.032

TIMM17B (UniProt O60830)
inactive: [1] 0.044 | [2] 0.003 | [3] -0.045 | [4] -0.052 | [5] -0.048

TMEM167A (UniProt Q8TBQ9)
inactive: [1] -0.073 | [2] -0.048 | [3] 0.032 | [4] -0.05 | [5] -0.149

TIMM8A (UniProt O60220)
inactive: [1] 0.106 | [2] -0.044 | [3] -0.012 | [4] -0.04 | [5] 0.085

TMEM179B (UniProt Q7Z7N9)
inactive: [1] 0.034 | [2] -0.086 | [3] -0.137 | [4] -0.005 | [5] -0.127

THEM6 (UniProt Q8WUY1)
inactive: [1] -0.01 | [2] -0.006 | [3] -0.014 | [4] 0.062 | [5] 0.008

TMEM126A (UniProt Q9H061)
inactive: [1] 0.02 | [2] 0.002 | [3] -0.03 | [4] 0.001 | [5] 0.028

TMEM173 (UniProt Q86WV6)
inactive: [1] -0.072 | [2] 0.081 | [3] 0.018 | [4] -0.065 | [5] 0.008

TM7SF3 (UniProt Q9NS93)
inactive: [1] -0.143 | [2] -0.043 | [3] -0.004 | [4] -0.033 | [5] 0.018

TMEM161B (UniProt Q8NDZ6)
inactive: [1] -0.07 | [2] -0.052 | [3] -0.076 | [5] -0.025

TMEM161A (UniProt Q9NX61)
inactive: [1] -0.082 | [2] -0.208 | [3] 0.139 | [4] -0.137 | [5] 0.175

TLK2 isoform 2 (UniProt Q86UE8)
inactive: [1] 0.014 | [2] -0.027 | [3] 0.033 | [4] -0.015 | [5] -0.075

TGFBR3 (UniProt Q03167)
inactive: [1] -0.067 | [2] 0.066 | [3] 0.083 | [4] -0.026 | [5] -0.015

THOC5 (UniProt Q13769)
inactive: [1] 0.026 | [2] 0.048 | [3] 0.016 | [4] -0.01 | [5] 0.006

TMEM177 (UniProt Q53S58)
inactive: [1] 0.002 | [2] -0.009 | [3] 0.015 | [5] 0.068

TIMM21 (UniProt Q9BVV7)
inactive: [1] 0.034 | [2] 0.01 | [3] -0.011 | [4] 0.015 | [5] 0.008

TLK1 isoform 2 (UniProt Q9UKI8)
inactive: [1] 0.005 | [2] -0.02 | [3] -0.026 | [4] -0.025 | [5] -0.072

TMCO3 (UniProt Q6UWJ1)
inactive: [1] -0.067 | [2] 0.102 | [3] -0.168 | [5] -0.005

THUMPD3 (UniProt Q9BV44)
inactive: [1] 0.004 | [2] 0.012 | [3] -0.008 | [4] -0.008 | [5] -0.028

TLE4 isoform 3 (UniProt Q04727)
inactive: [1] 0.011 | [2] -0.012 | [3] -0.031 | [4] 0.007 | [5] -0.05

TGM2 (UniProt P21980)
inactive: [1] 0.017 | [2] 0.006 | [3] 0.017 | [4] -0.017 | [5] -0.004

TLN2 (UniProt Q9Y4G6)
inactive: [1] 0.028 | [2] 0 | [3] 0.004 | [4] 0.021 | [5] -0.032

TMED4 (UniProt Q7Z7H5)
inactive: [1] 0.003 | [2] 0.027 | [3] 0.022 | [4] 0.005 | [5] -0.007

TMEM11 (UniProt P17152)
inactive: [1] -0.013 | [2] -0.107 | [3] -0.006 | [4] -0.024 | [5] 0.015

THOC7 (UniProt Q6I9Y2)
inactive: [1] -0.033 | [2] 0.044 | [3] -0.027 | [4] 0.011 | [5] 0.044

THG1L (UniProt Q9NWX6)
inactive: [1] 0.02 | [2] 0 | [3] 0.029 | [4] -0.027 | [5] 0.025

TMEM167B (UniProt Q9NRX6)
inactive: [1] 0.021 | [2] -0.032 | [3] 0.036 | [5] -0.187

TMA16 (UniProt Q96EY4)
inactive: [1] 0.008 | [2] 0.091 | [3] -0.015 | [4] 0.052 | [5] 0

THAP11 (UniProt Q96EK4)
inactive: [1] -0.008 | [2] -0.151 | [3] -0.144 | [4] -0.02 | [5] 0.058

TIA1 (UniProt P31483)
inactive: [1] 0.03 | [2] 0.025 | [3] 0.028 | [4] 0.049 | [5] 0.024

TIMM44 (UniProt O43615)
inactive: [1] -0.062 | [2] 0 | [3] 0.034 | [4] -0.035 | [5] -0.003

TLN1 (UniProt Q9Y490)
inactive: [1] -0.001 | [2] 0.003 | [3] -0.012 | [4] 0.009 | [5] 0.003

11 consecutive entries already listed, quoted:
TLN2 (UniProt Q9Y4G6)
inactive: [1] 0.028 | [2] 0 | [3] 0.004 | [4] 0.021 | [5] -0.032

TMED4 (UniProt Q7Z7H5)
inactive: [1] 0.003 | [2] 0.027 | [3] 0.022 | [4] 0.005 | [5] -0.007

TMEM11 (UniProt P17152)
inactive: [1] -0.013 | [2] -0.107 | [3] -0.006 | [4] -0.024 | [5] 0.015

THOC7 (UniProt Q6I9Y2)
inactive: [1] -0.033 | [2] 0.044 | [3] -0.027 | [4] 0.011 | [5] 0.044

THG1L (UniProt Q9NWX6)
inactive: [1] 0.02 | [2] 0 | [3] 0.029 | [4] -0.027 | [5] 0.025

TMEM167B (UniProt Q9NRX6)
inactive: [1] 0.021 | [2] -0.032 | [3] 0.036 | [5] -0.187

TMA16 (UniProt Q96EY4)
inactive: [1] 0.008 | [2] 0.091 | [3] -0.015 | [4] 0.052 | [5] 0

THAP11 (UniProt Q96EK4)
inactive: [1] -0.008 | [2] -0.151 | [3] -0.144 | [4] -0.02 | [5] 0.058

TIA1 (UniProt P31483)
inactive: [1] 0.03 | [2] 0.025 | [3] 0.028 | [4] 0.049 | [5] 0.024

TIMM44 (UniProt O43615)
inactive: [1] -0.062 | [2] 0 | [3] 0.034 | [4] -0.035 | [5] -0.003

TLN1 (UniProt Q9Y490)
inactive: [1] -0.001 | [2] 0.003 | [3] -0.012 | [4] 0.009 | [5] 0.003

Later entries

TMED2 (UniProt Q15363)
inactive: [1] -0.018 | [2] -0.001 | [3] 0.042 | [4] 0.016 | [5] 0.012

THOC1 (UniProt Q96FV9)
inactive: [1] 0.002 | [2] -0.032 | [3] 0.007 | [4] 0.02 | [5] -0.003

THADA (UniProt Q6YHU6)
inactive: [1] -0.028 | [2] -0.016 | [3] 0.069 | [4] 0.007 | [5] 0.028

TGS1 (UniProt Q96RS0)
inactive: [1] -0.051 | [2] 0.017 | [3] 0.017 | [4] -0.018 | [5] -0.027

TMEM109 (UniProt Q9BVC6)
inactive: [1] 0.007 | [2] -0.023 | [3] -0.063 | [4] 0 | [5] -0.048

TMBIM6 isoform 2 (UniProt P55061)
inactive: [1] -0.039 | [2] 0.012 | [3] 0.105 | [4] 0.026 | [5] 0.012

TMEM115 (UniProt Q12893)
inactive: [1] 0.021 | [2] 0.053 | [3] -0.007 | [4] -0.045 | [5] -0.068

TMEM104 (UniProt Q8NE00)
inactive: [1] 0.081 | [2] 0.031 | [3] -0.194 | [5] 0.187

TM9SF2 (UniProt Q99805)
inactive: [1] -0.028 | [2] 0.008 | [3] 0.02 | [4] -0.021 | [5] -0.038

TK2 isoform 6 (UniProt O00142)
inactive: [1] -0.007 | [2] 0.003 | [3] 0.059 | [4] -0.115 | [5] -0.143

TMED1 (UniProt Q13445)
inactive: [1] -0.014 | [2] -0.011 | [3] 0.036 | [4] -0.143 | [5] 0.018

TIMM29 (UniProt Q9BSF4)
inactive: [1] 0.043 | [2] 0.035 | [3] 0.021 | [4] -0.035 | [5] -0.067

TKFC (UniProt Q3LXA3)
inactive: [1] 0.045 | [2] 0.027 | [3] -0.003 | [4] -0.017 | [5] -0.004

TIMELESS (UniProt Q9UNS1)
inactive: [1] -0.013 | [2] 0.011 | [3] 0.01 | [4] 0.012 | [5] 0.02

TIMM10B (UniProt Q9Y5J6)
inactive: [1] 0.054 | [2] -0.149 | [3] -0.105 | [4] -0.097 | [5] 0.092
